From paper PMC3830446
These are yes or no findings as the source states them, for the method shown. In cells and extracts the contact can be indirect. These calls come from enrichment with a bait or labelling near it, and not all partners need be listed.

Protein sequences, listed by entry. Tags and fused reporters are not part of them. Residues count along the entry.
UniProt P30086: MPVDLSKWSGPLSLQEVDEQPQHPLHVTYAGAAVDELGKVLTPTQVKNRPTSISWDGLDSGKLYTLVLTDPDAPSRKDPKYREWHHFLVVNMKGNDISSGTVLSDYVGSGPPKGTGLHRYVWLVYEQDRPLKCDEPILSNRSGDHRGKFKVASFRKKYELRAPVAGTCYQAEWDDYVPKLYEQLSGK
UniProt P10696, residues 20-503: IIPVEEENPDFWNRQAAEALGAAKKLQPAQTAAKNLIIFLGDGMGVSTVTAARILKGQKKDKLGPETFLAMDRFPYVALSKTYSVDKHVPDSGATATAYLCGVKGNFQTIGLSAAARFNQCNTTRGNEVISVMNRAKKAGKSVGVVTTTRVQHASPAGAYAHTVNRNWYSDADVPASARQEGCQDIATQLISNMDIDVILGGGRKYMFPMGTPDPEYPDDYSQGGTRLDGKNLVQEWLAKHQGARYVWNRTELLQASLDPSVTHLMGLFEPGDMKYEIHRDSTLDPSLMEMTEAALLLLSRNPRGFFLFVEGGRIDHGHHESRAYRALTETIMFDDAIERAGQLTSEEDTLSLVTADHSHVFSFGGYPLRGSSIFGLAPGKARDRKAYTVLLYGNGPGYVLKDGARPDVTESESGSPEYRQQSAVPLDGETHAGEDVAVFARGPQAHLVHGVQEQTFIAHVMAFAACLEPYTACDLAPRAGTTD
UniProt O75369: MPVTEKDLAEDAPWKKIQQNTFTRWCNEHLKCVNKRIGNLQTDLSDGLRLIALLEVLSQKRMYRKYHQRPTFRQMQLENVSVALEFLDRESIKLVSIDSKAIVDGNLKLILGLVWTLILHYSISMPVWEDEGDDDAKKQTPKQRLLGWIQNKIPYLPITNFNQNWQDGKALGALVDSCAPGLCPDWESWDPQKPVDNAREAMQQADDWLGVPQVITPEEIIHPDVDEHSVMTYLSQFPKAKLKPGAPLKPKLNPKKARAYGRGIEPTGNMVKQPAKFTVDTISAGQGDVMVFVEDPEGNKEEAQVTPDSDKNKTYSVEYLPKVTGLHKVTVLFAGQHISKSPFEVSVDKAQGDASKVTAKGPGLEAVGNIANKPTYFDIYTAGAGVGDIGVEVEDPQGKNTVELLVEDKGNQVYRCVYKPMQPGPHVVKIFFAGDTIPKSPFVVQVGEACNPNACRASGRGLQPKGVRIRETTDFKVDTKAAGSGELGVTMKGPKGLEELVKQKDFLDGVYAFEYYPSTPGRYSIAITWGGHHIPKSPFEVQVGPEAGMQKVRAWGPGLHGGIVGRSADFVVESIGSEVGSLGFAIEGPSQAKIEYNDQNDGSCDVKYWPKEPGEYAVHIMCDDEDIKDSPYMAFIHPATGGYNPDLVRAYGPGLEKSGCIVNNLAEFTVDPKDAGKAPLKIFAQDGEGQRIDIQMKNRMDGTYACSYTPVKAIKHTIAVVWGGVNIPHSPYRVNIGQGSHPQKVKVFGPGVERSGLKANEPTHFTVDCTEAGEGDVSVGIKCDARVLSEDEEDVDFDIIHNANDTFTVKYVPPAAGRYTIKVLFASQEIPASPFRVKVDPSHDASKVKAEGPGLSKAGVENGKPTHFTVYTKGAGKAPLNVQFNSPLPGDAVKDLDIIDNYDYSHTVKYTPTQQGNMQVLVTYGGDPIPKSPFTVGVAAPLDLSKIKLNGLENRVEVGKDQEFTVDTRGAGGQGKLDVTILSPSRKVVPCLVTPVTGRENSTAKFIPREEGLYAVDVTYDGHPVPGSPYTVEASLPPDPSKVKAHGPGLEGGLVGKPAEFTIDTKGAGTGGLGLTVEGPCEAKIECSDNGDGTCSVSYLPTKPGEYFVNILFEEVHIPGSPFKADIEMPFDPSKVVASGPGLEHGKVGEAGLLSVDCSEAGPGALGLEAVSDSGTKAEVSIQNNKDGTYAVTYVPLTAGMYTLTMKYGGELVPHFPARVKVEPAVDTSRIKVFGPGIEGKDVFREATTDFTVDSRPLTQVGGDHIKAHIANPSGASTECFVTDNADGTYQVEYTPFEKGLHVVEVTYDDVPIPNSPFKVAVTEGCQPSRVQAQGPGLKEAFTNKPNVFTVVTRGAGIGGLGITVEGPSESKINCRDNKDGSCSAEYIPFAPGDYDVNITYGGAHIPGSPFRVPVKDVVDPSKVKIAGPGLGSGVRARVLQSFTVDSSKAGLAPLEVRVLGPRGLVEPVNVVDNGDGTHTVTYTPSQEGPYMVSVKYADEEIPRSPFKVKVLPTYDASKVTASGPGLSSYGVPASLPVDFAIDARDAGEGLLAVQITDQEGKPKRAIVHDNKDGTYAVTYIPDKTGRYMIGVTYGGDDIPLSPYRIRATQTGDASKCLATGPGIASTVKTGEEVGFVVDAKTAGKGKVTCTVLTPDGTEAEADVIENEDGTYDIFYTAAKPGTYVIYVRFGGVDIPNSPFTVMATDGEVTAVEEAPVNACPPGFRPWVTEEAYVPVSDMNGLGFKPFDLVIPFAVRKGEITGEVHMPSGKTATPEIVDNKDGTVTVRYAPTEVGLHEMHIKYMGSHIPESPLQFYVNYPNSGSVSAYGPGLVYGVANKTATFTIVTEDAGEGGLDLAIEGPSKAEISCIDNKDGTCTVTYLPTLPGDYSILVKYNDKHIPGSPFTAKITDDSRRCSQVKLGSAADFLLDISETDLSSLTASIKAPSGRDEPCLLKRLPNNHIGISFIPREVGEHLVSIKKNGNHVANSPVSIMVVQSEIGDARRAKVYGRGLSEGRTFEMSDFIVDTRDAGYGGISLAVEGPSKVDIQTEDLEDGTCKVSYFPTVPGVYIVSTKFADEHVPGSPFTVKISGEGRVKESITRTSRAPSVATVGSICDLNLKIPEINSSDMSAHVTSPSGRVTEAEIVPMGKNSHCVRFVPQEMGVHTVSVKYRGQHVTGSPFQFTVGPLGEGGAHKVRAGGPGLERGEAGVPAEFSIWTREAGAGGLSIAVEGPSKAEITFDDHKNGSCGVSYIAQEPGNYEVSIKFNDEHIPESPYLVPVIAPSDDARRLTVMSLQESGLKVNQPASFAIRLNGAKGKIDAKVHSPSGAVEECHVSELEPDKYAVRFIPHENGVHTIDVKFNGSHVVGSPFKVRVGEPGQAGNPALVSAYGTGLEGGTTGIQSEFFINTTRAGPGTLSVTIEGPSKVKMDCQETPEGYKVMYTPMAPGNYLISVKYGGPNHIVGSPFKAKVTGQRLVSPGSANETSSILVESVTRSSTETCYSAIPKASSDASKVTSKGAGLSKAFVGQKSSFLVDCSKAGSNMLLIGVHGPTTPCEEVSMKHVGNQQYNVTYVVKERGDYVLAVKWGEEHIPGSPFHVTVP
UniProt P06733: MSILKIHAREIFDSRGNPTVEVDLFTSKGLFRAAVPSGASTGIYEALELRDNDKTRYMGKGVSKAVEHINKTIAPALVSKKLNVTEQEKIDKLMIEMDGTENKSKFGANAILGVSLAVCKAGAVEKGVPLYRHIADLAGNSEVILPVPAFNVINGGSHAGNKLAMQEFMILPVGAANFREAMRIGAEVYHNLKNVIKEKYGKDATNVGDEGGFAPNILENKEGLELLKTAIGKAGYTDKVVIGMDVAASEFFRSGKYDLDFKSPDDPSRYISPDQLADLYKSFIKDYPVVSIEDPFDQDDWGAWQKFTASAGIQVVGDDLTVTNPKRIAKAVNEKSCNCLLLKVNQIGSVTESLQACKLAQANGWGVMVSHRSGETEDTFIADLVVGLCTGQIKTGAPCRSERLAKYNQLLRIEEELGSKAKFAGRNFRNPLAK
UniProt P08758: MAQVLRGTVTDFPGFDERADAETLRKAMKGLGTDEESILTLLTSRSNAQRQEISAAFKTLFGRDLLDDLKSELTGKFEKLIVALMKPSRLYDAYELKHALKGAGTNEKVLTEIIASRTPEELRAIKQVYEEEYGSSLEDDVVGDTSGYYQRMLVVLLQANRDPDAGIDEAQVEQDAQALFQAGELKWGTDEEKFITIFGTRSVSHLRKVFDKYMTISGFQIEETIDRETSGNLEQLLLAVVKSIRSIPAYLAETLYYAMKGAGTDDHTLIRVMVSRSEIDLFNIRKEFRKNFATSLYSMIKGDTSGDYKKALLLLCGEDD
UniProt P04264: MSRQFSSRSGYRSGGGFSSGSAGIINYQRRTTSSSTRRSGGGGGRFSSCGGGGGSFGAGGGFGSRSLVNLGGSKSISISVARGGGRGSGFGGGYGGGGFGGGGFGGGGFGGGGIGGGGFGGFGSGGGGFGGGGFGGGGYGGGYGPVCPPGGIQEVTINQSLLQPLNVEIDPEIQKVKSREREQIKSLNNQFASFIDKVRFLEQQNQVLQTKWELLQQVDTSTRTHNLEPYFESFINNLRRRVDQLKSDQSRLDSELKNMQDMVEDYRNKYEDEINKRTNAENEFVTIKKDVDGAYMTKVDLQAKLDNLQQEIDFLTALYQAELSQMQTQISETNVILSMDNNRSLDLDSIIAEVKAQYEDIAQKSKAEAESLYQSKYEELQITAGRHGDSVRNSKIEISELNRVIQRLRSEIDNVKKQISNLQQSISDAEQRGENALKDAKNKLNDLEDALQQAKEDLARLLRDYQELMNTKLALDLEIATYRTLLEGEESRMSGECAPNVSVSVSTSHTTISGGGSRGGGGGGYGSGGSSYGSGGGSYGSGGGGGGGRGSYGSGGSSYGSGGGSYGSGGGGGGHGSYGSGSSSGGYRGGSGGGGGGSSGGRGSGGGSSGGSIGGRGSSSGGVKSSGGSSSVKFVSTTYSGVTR
UniProt Q04695: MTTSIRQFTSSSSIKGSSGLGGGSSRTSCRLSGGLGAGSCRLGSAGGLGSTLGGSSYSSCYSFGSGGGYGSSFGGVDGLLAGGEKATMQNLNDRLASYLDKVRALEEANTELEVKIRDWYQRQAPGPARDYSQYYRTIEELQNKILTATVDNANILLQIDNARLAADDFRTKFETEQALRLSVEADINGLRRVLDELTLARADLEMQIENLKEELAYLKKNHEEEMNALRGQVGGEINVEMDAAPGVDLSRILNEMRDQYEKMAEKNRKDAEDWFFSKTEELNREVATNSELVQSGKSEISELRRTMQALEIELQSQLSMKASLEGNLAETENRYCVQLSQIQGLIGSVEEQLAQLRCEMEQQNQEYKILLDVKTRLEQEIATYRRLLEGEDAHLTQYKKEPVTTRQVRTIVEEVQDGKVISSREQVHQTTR
UniProt P61289: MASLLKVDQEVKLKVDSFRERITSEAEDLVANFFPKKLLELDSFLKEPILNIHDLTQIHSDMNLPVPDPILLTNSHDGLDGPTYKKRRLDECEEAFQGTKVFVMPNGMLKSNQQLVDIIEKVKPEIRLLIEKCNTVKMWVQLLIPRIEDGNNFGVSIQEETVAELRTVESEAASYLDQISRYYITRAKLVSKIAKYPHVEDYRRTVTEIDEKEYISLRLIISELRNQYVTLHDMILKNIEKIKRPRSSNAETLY
UniProt P09211: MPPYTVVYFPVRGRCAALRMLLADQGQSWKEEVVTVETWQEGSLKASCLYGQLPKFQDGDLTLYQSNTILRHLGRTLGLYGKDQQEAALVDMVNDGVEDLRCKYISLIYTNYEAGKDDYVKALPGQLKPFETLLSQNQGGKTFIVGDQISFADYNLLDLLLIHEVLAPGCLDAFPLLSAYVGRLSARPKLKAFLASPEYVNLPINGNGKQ
UniProt P53618: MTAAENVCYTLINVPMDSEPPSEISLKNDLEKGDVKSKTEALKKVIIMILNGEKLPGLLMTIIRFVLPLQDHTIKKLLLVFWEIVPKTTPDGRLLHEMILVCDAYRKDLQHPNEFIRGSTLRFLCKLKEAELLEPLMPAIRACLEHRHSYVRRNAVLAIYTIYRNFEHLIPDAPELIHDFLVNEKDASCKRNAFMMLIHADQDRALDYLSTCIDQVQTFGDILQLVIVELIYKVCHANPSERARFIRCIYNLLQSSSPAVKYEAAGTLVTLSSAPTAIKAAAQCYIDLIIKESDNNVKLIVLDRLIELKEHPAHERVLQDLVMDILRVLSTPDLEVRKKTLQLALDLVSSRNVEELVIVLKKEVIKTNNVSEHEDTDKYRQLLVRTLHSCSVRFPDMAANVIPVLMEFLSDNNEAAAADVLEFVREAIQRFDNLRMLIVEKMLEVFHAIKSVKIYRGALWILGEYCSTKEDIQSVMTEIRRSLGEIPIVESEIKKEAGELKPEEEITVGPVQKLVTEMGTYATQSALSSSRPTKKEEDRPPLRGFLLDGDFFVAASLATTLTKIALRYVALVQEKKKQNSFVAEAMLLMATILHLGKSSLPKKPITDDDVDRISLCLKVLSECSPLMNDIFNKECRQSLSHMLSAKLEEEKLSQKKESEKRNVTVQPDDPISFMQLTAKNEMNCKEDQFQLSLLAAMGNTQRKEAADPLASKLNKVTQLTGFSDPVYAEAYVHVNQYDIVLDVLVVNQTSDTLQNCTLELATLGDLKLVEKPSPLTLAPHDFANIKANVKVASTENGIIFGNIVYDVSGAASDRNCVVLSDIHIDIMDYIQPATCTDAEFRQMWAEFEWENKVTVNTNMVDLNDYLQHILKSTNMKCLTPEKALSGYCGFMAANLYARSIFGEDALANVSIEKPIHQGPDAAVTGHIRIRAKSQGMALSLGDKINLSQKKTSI

biological target: RKIP-3xFLAG fusion protein (UniProt P30086); test: affinity purification with mass spectrometry; RKIP-3xFLAG from transfected SGC7901 cells held on anti-FLAG M2 magnetic beads (overnight, 4°C); 1D SDS-PAGE, in-gel trypsin digestion, ESI-Q-TOF MS/MS; 3xFLAG (blank carrier) and blank groups as controls; repeated three times

Row | binding | Substance
1 | binds | Heat shock cognate 71 kDa protein, isoform 1 (from UniProt P11142 1-646)
2 | binds | Alkaline phosphatase, placental-like (from UniProt P10696 20-503)
3 | binds | Clathrin heavy chain 1, isoform 1 (from UniProt Q00610 1-1675)
4 | binds | Voltage-dependent anion-selective channel protein 1 (from UniProt P21796 1-283)
5 | binds | Stress-70 protein, mitochondrial (from UniProt P38646 47-679)
6 | binds | Vinculin, isoform 1 (from UniProt P18206-2)
7 | binds | Elongation factor 1-gamma (from UniProt P26641 1-437)
8 | binds | Filamin-B, isoform 1 (from UniProt O75369 1-2602)
9 | binds | Vimentin (from UniProt P08670 1-466)
10 | binds | Importin subunit beta-1 (from UniProt Q14974 1-876)
11 | binds | ATP-citrate synthase (from UniProt P53396 1-1101)

Second part, the substance before the results:

Row | Substance | binding
12 | Tubulin beta chain (from UniProt P07437 1-444) | binds
13 | Transitional endoplasmic reticulum ATPase (from UniProt P55072 1-806) | binds
14 | Alpha-enolase (from UniProt P06733 1-434) | binds
15 | Pyruvate kinase isozymes M1/M2, isoform M2 (from UniProt P14618 1-531) | binds
16 | Endoplasmin (from UniProt P14625 22-803) | binds
17 | Myosin-9, isoform 1 (from UniProt P35579 1-1960) | binds
18 | Ras GTPase-activating-like protein IQGAP1 (from UniProt P46940 1-1657) | binds
19 | Heat shock protein HSP 90-beta (from UniProt P08238 1-724) | binds
20 | Annexin A5 (from UniProt P08758 1-320) | binds
21 | Keratin, type II cytoskeletal 1 (from UniProt P04264 1-644) | binds
22 | Keratin, type I cytoskeletal 17 (from UniProt Q04695 1-432) | binds
23 | Proteasome activator complex subunit 3, isoform 1 (from UniProt P61289 1-254) | binds
24 | Glutathione S-transferase P (from UniProt P09211 1-210) | binds
25 | Glyceraldehyde-3-phosphate dehydrogenase (from UniProt P04406 1-335) | binds
26 | Coatomer subunit beta (from UniProt P53618 1-953) | binds
27 | 60 kDa heat shock protein, mitochondrial (from UniProt P10809 27-573) | binds
28 | 14-3-3 protein epsilon (from UniProt P62258 1-255) | binds
29 | Transcription intermediary factor 1-beta, isoform 1 (from UniProt Q13263 1-835) | binds
30 | Tubulin beta-2C chain (from UniProt P68371 1-445) | binds
31 | Eukaryotic initiation factor 4A-I (from UniProt P60842 1-406) | binds
32 | Puromycin-sensitive aminopeptidase (from UniProt P55786 1-919) | binds
33 | Elongation factor 1-alpha 1 (from UniProt P68104 1-462) | binds
